Results deposited as PubChem BioAssay AID504764 (Drosophila RNAi Screening Center, 2011).

- Purpose: 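Genome-wide screen for regulators of Notch-driven gene expression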 (primary screen)
- Cell system: Drosophila Kc167 cells
- Reagents: long dsRNA against Drosophila genes
- Timing: about 5 days (4 days dsRNA, then 24 h after transfection)
- Conditions: transfection of constitutively active membrane-tethered Notch lacking the extracellular domain, read 24 h later
- Detection: 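Light from a Notch-responsive E(spl)m3 luciferase reporter under active Notch, with control-promoter and no-Notch reporter wells to normalise; raw counts from paired wells a and b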
- Reading the numbers: induced reporter light, run 1, well a and induced reporter light, run 1, well b: higher = more light from the Notch target reporter with active Notch; control promoter light, run 1, well a and control promoter light, run 1, well b: higher = more light from the viral control promoter (cell number, transfection, viability); uninduced reporter light, run 1, well a: higher = more light from the Notch target reporter without active Notch
- Rule for the call: 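Hit if the duplicate-averaged log2 ratio of induced to control-promoter light gives a plate-wise z beyond ±2, or induced to uninduced beyond ±1.8; weak-control or discordant-duplicate wells dropped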
- Calls: active = modifier hit (raised or lowered Notch signal); inactive = not a hit
The screen tested about 22,000 reagents; shown is an unselected part of those with a known target gene and a result. Of all reagents, 403 (1.9%) got an active call. 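Unnormalised raw counts per well; ratio z-scores behind the hit calls and whether each hit raises or lowers signal are not deposited.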 A number with no mark means an inactive call. Reagent sequences are not shown. The record does not give: the amount of reagent.

After knock-down of inc [DRSC17954], the screen gave induced reporter light, run 1, well a = 97965; induced reporter light, run 1, well b = 1.29e5; control promoter light, run 1, well a = 1.48e5; control promoter light, run 1, well b = 2.00e5; uninduced reporter light, run 1, well a = 9110.
inc [DRSC18512] gave induced reporter light, run 1, well a = 1.84e5; induced reporter light, run 1, well b = 2.02e5; control promoter light, run 1, well a = 2.68e5; control promoter light, run 1, well b = 2.91e5; uninduced reporter light, run 1, well a = 13725.
Against Cbl [DRSC10764], the values are induced reporter light, run 1, well a = 1.29e5; induced reporter light, run 1, well b = 1.54e5; control promoter light, run 1, well a = 1.48e5; control promoter light, run 1, well b = 1.03e5; uninduced reporter light, run 1, well a = 8105.
Cbl [DRSC11111] scored induced reporter light, run 1, well a = 1.87e5; induced reporter light, run 1, well b = 1.76e5; control promoter light, run 1, well a = 1.56e5; control promoter light, run 1, well b = 1.79e5; uninduced reporter light, run 1, well a = 8010.
After knock-down of Send2 [DRSC01906], the screen gave induced reporter light, run 1, well a = 1.29e5; induced reporter light, run 1, well b = 1.54e5; control promoter light, run 1, well a = 1.22e5; control promoter light, run 1, well b = 1.34e5; uninduced reporter light, run 1, well a = 10345.
Silencing of PpV [DRSC18700] resulted in: induced reporter light, run 1, well a = 1.11e5; induced reporter light, run 1, well b = 1.25e5; control promoter light, run 1, well a = 2.06e5; control promoter light, run 1, well b = 2.31e5; uninduced reporter light, run 1, well a = 7692.
CG4363 [DRSC04465] scored induced reporter light, run 1, well a = 56880; induced reporter light, run 1, well b = 52615; control promoter light, run 1, well a = 46450; control promoter light, run 1, well b = 55860; uninduced reporter light, run 1, well a = 3028.

2 successive records already listed:
inc [DRSC17954]: induced reporter light, run 1, well a = 97965; induced reporter light, run 1, well b = 1.29e5; control promoter light, run 1, well a = 1.48e5; control promoter light, run 1, well b = 2.00e5; uninduced reporter light, run 1, well a = 9110
inc [DRSC18512]: induced reporter light, run 1, well a = 1.84e5; induced reporter light, run 1, well b = 2.02e5; control promoter light, run 1, well a = 2.68e5; control promoter light, run 1, well b = 2.91e5; uninduced reporter light, run 1, well a = 13725

The listing continues:
For CG31342 [DRSC15349], the entry reads induced reporter light, run 1, well a = 1.34e5; induced reporter light, run 1, well b = 1.33e5; control promoter light, run 1, well a = 1.05e5; control promoter light, run 1, well b = 92010; uninduced reporter light, run 1, well a = 11280.
Against CG31342 [DRSC16246], the entry reads induced reporter light, run 1, well a = 3.20e5; induced reporter light, run 1, well b = 2.92e5; control promoter light, run 1, well a = 2.36e5; control promoter light, run 1, well b = 2.44e5; uninduced reporter light, run 1, well a = 24255.
For CG17472 [DRSC02622] the deposit lists induced reporter light, run 1, well a = 44595; induced reporter light, run 1, well b = 28960; control promoter light, run 1, well a = 43615; control promoter light, run 1, well b = 26815; uninduced reporter light, run 1, well a = 1090.
For Mad1 [DRSC07561], the entry reads induced reporter light, run 1, well a = 1.26e5; induced reporter light, run 1, well b = 93045; control promoter light, run 1, well a = 98255; control promoter light, run 1, well b = 77335; uninduced reporter light, run 1, well a = 9460.
Pdk [DRSC07504] showed induced reporter light, run 1, well a = 1.63e5; induced reporter light, run 1, well b = 1.74e5; control promoter light, run 1, well a = 1.67e5; control promoter light, run 1, well b = 1.58e5; uninduced reporter light, run 1, well a = 14505.
